According to paper PMC12041353:
No constants are given. Whether binding was seen depends on the method and setting. Binding seen in cells or lysates may run through a third protein. Here binding means that the protein was enriched with, or labelled near, the bait; the list need not be complete.

Chains of the proteins cited; added tags and fusions are not shown.
UniProt Q9GZV5: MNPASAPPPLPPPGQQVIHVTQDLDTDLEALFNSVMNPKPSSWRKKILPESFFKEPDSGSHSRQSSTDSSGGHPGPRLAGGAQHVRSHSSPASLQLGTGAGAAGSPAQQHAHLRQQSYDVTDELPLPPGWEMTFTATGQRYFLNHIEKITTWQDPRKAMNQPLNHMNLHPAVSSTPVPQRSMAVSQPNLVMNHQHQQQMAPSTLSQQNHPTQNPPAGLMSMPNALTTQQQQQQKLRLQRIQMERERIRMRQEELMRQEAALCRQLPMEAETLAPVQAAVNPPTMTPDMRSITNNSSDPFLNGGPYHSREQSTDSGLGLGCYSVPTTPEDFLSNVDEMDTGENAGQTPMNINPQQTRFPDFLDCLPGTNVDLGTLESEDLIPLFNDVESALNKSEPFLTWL

Biological target: TAZ (transcriptional coactivator with PDZ-binding motif), endogenous (human (endogenous in T24)) (UniProt Q9GZV5)
Assay: affinity purification with mass spectrometry; IP in T24 cells followed by mass spectrometry to identify TAZ-interacting proteins

B1: NRF2 (nuclear factor erythroid 2-related factor 2), endogenous (protein, UniProt Q16236 1-605)
chain: MMDLELPPPGLPSQQDMDLIDILWRQDIDLGVSREVFDFSQRRKEYELEKQKKLEKERQEQLQKEQEKAFFAQLQLDEETGEFLPIQPAQHIQSETSGSANYSQVAHIPKSDALYFDDCMQLLAQTFPFVDDNEVSSATFQSLVPDIPGHIESPVFIATNQAQSPETSVAQVAPVDLDGMQQDIEQVWEELLSIPELQCLNIENDKLVETTMVPSPEAKLTEVDNYHFYSSIPSMEKEVGNCSPHFLNAFEDSFSSILSTEDPNQLTVNSLNSDATVNTDFGDEFYSAFIAEPSISNSMPSPATLSHSLSELLNGPIDVSDLSLCKAFNQNHPESTAEFNDSDSGISLNTSPSVASPEHSVESSSYGDTLLGLSDSEVEELDSAPGSVKQNGPKTPVHSSGDMVQPLSPSQGQSTHVHDAQCENTPEKELPVSPGHRKTPFTKDKHSSRLEAHLTRDELRAKALHIPFPVEKIINLPVVDFNEMMSKEQFNEAQLALIRDIRRRGKNKVAAQNCRKRKLENIVELEQDLDHLKDEKEKLLKEKGENDKSLHLLKKQLSTLYLEVFSMLRDEDGKPYSPSEYSLQQTRDGNVFLVPKSKKPDVKKN
For B1, the binding was “binds”.
